Laboratory results: patent publication US11866509B2, “Humanized antibodies against CEACAM1” (Famewave Ltd., priority 2014, dated 2024)
At least one structure is not confirmed: it was looked up by name or label, or the drawing left a doubt.

System: phosphorylated ERK1/2 in B-Raf V600E (624mel) cells
Experiment: MAPK activity by immunoblotting for phosphorylated ERK1/2
Assay type: cell-based, human
Conditions: 160 nM, 24 hours

With `CCCS(=O)(=O)Nc1ccc(F)c(C(=O)c2c[nH]c3ncc(-c4ccc(Cl)cc4)cc23)c1F` [vemurafenib] the MAPK activity (vemurafenib-resistant cells) was “practically uninterrupted” and the “phosphorylation of ERK1/2” value (vemurafenib-sensitive cells) was “almost completely abolishes”.
